From PMC7819943, “Rice protein-binding microarrays: a tool to detect cis-acting elements near promoter regions in rice”
The list shows a part of the results.

By UniProt entry, the sequences of proteins in these tests, tags left out.
UniProt Q0JBA9, entry or part of it: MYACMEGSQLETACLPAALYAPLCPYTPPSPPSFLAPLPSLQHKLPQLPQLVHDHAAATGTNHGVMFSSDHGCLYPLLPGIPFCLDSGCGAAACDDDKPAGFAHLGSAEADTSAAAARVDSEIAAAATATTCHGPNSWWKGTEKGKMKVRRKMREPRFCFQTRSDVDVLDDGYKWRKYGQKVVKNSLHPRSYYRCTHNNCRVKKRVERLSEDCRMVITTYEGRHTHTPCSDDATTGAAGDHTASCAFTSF

target: OsWRKY34 (Oryza sativa, UniProt Q0JBA9 1-250); experiment: protein-binding microarray (RPBM); PBS, 2% BSA, 51.3 ng/ul salmon testes DNA, 50 uM zinc acetate, 200 nM TF, 25 C, 1 h; high values mean tight binding; details: protein: recombinant; tags: N-terminal polyhistidine and DsRed monomer fusion (pET32a); label: CyDye5-dUTP incorporated in the synthesized complementary strand; 3' TTTTT single-stranded linker to array surface; dsDNA, one strand shown
Outline: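 Ni–NTA purification followed expression in E. coli BL21-CodonPlus of transcription factors fused N-terminally to a polyhistidine tag and DsRed. At 200 nM in PBS with 2% BSA, salmon testes DNA and 50 µM zinc acetate, the protein was incubated for 1 h at 25 °C with a custom Agilent array that had been primer-extended with Cy5-dUTP and blocked with 2% BSA. After washing, the array was read on an Axon 4000B scanner. The binding signal is per-feature fluorescence intensity in arbitrary units.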

Sequence | binding signal
GGATTGCCTCTAACACCACATCAGTTGACACACAAGGTTCCGGAGTCACCTAGTGCAG | 9040 fluorescence intensity (a.u.)
TCCATCATCAACAAATGTTTACCGTAACATCATATTGTCACGGAGTCACCTAGTGCAG | 8340 fluorescence intensity (a.u.)
TTGTACTACCATTACCTATTGTGCTTGTCATATTTAGAGGCGGAGTCACCTAGTGCAG | 8120 fluorescence intensity (a.u.)
TTTTGTATGTTTTATTTTTTGACATTGTATTGTCGCTCAACGGAGTCACCTAGTGCAG | 12100 fluorescence intensity (a.u.)
GTGCTGGCTTATTTCATGTATATTGTGATGGACTCTTTTTCGGAGTCACCTAGTGCAG | 8200 fluorescence intensity (a.u.)
TCTATTTTCATCGCCACTATACCTCCGGCCCACGGACGCGCGGAGTCACCTAGTGCAG | 8230 fluorescence intensity (a.u.)
CACTACGTTTCGGTTTTGACCATTTTCCCAATTTCTATAGCGGAGTCACCTAGTGCAG | 8960 fluorescence intensity (a.u.)
GGTCTCTCTCTTCGTCTCTCCGTCTCTCGTTCTCTCCTCTCGGAGTCACCTAGTGCAG | 8770 fluorescence intensity (a.u.)
GATGTCTGCCTTTAGTTGAGTATTTCATGAGAAGATATTACGGAGTCACCTAGTGCAG | 9320 fluorescence intensity (a.u.)
TCCCGCATCTCGCGCCGCCGCCCCTCCACCGCATCCACGCCGGAGTCACCTAGTGCAG | 11300 fluorescence intensity (a.u.)
GATCCCATTTCGGCTTTTTATTATCCAAATCCCACGGAAGCGGAGTCACCTAGTGCAG | 8860 fluorescence intensity (a.u.)
CGTTGGACATGGAAACCGGGTTTGTCTTTTTTTTTTTAACCGGAGTCACCTAGTGCAG | 8290 fluorescence intensity (a.u.)
TGCTTCTTGGACATCGCATCATATTTAAGCATGTTTTCCTCGGAGTCACCTAGTGCAG | 10500 fluorescence intensity (a.u.)
CAGGTTCTCTTTATCCGCCGCTGCTTCTGAATTTTTGCCCCGGAGTCACCTAGTGCAG | 8400 fluorescence intensity (a.u.)
AAAAGTATAGTGTGCCTGGTGGGGTGTTCCCATTAACGATCGGAGTCACCTAGTGCAG | 9480 fluorescence intensity (a.u.)
GCGGCGGCGGCGCGAGGTTGACGACGACCCTGTCAGCGGGCGGAGTCACCTAGTGCAG | 8850 fluorescence intensity (a.u.)
CTCATAGTCATAGTTACTGATTTGTTTGCTCATAGTCATACGGAGTCACCTAGTGCAG | 13900 fluorescence intensity (a.u.)
GGTTTTAGCTGACGTGGCGCCTACGTGACAGTGTTGACCCCGGAGTCACCTAGTGCAG | 8330 fluorescence intensity (a.u.)
ATCTCTAAACACCAAATTTGACACCGATCCACGTGCACACCGGAGTCACCTAGTGCAG | 8620 fluorescence intensity (a.u.)
ATATATATAGTACGTACTAAGATCTTTCTTTTTTCATCACCGGAGTCACCTAGTGCAG | 9500 fluorescence intensity (a.u.)
CACAATACTGTCTCACTCAGCTTTTATTGACCATATGCTCCGGAGTCACCTAGTGCAG | 10500 fluorescence intensity (a.u.)
TCTCCCTCATTCGGCGTGCCTCCGCTCCTCTCCTGCGCGCCGGAGTCACCTAGTGCAG | 8110 fluorescence intensity (a.u.)
GTTATTTTTTTAGCCTATATGTAATACTTCAGATGTTCAACGGAGTCACCTAGTGCAG | 8080 fluorescence intensity (a.u.)
GTCTCACCGGAGCTCCGCCGCCGCCGCCGCCGTTTTCTCCCGGAGTCACCTAGTGCAG | 25700 fluorescence intensity (a.u.)
GATTTCGTCACGCCAAAGCCGTGACAGGCTGATTGCTACCCGGAGTCACCTAGTGCAG | 9100 fluorescence intensity (a.u.)
ATTTCCTTATATATATTCTTCTTCTTTTGCGATCACATGCCGGAGTCACCTAGTGCAG | 9050 fluorescence intensity (a.u.)
CTGCGTCGTCTTTTCTCTCTCTACTGGTTGGTATGGTAATCGGAGTCACCTAGTGCAG | 11000 fluorescence intensity (a.u.)

Sequence | binding signal
ATTAATATCCTCCTTGCAAGATATGCACTACTGTTACAGACGGAGTCACCTAGTGCAG | 8470 fluorescence intensity (a.u.)
ATCACCACCCACCCCGCTCCTCGCGCCGCCGACGCGCCACCGGAGTCACCTAGTGCAG | 9350 fluorescence intensity (a.u.)
ACGTGCATAATTATTTTTATTCTTGATATGTGTTTGACAGCGGAGTCACCTAGTGCAG | 8080 fluorescence intensity (a.u.)
TTTTGTTTGGCTCAGCTCGGTTCACTCCCTGTTCATGTTACGGAGTCACCTAGTGCAG | 10700 fluorescence intensity (a.u.)
TCCCAATTCACAGCTGGGTCTATGTATCACTTATCAAGTACGGAGTCACCTAGTGCAG | 9860 fluorescence intensity (a.u.)
TGTCCGGTTTTCGTAAGTTGGGGAATGGGTCGTATCCGGTCGGAGTCACCTAGTGCAG | 8160 fluorescence intensity (a.u.)
ATCAGCTTTCTCAAACCACGCAGCCACGACACATCGATCTCGGAGTCACCTAGTGCAG | 8960 fluorescence intensity (a.u.)
TACGTACCATCCATGCATGATCCATCCATCTTGCGGCCATCGGAGTCACCTAGTGCAG | 11900 fluorescence intensity (a.u.)
CATGTTGAATGCCAACGTCTCATCAGCGCATTCACCTTCACGGAGTCACCTAGTGCAG | 9760 fluorescence intensity (a.u.)
GATTTTTGTATGCCGTTCTTTTAACTGAAACCATTCGATTCGGAGTCACCTAGTGCAG | 8750 fluorescence intensity (a.u.)
TGGTTTTTTGTTTTCTTATCGCCTTTTTACGACTTTTTTTCGGAGTCACCTAGTGCAG | 9270 fluorescence intensity (a.u.)
CTCAATCCAATCTTGCCGCTCTCCGGGCTCACAGTTTCTTCGGAGTCACCTAGTGCAG | 10300 fluorescence intensity (a.u.)
CTAGGGTTTGATGGGAGATGGATGTGTGGTGATGGCCTAGCGGAGTCACCTAGTGCAG | 8150 fluorescence intensity (a.u.)
ACGATTATCCCAGCTCTGTTTTCCGGTATGACCATTGATTCGGAGTCACCTAGTGCAG | 8750 fluorescence intensity (a.u.)
CCCCAACCCGCCGCCAGCCACCGAGCTCGCCACCGTCTCCCGGAGTCACCTAGTGCAG | 8970 fluorescence intensity (a.u.)
GATAAACCCTCATCGTCAGTTCGTCACCCACCGTCGCCTCCGGAGTCACCTAGTGCAG | 9030 fluorescence intensity (a.u.)
TTCTTCTTCTTACTACAGACTGAGTACGGCGATATCTTCACGGAGTCACCTAGTGCAG | 8170 fluorescence intensity (a.u.)
TGTGATTTAGTTTGACCAGGGAGGCCATGATCTGCATGCACGGAGTCACCTAGTGCAG | 8480 fluorescence intensity (a.u.)
GCTTCCCTGCTGTTTCGTTTTCTAATTCTGGGATGCACCTCGGAGTCACCTAGTGCAG | 10400 fluorescence intensity (a.u.)
TCTGGTCATTCATCTTATGTGGTTCATACTTTTTAGCACTCGGAGTCACCTAGTGCAG | 9250 fluorescence intensity (a.u.)
ATTATATAATCATTATTTATTTTATCATCACATGTTTTATCGGAGTCACCTAGTGCAG | 8980 fluorescence intensity (a.u.)
GTTTTCTGGTCAAACTCCAACCGTTTTACCCGCCATTTTGCGGAGTCACCTAGTGCAG | 10200 fluorescence intensity (a.u.)
ACCTGATTTCCCCTTGCTAATTCGGGCCATCGCATCACTCCGGAGTCACCTAGTGCAG | 8960 fluorescence intensity (a.u.)
CTGCTGCTCTTTTCGTCTATGGAAATGCCATACCGATTCCCGGAGTCACCTAGTGCAG | 10900 fluorescence intensity (a.u.)
TTATTTTTATTCTTTTATTGTTTTTTTCACTCCATAATAACGGAGTCACCTAGTGCAG | 9140 fluorescence intensity (a.u.)
TCTCCTCCACCTTTTTATACAACGCAAATCGCCTCGTCACCGGAGTCACCTAGTGCAG | 8780 fluorescence intensity (a.u.)
TCACTTTATTTTATCGCATTGGCAAAGACTATCCATATCCCGGAGTCACCTAGTGCAG | 9320 fluorescence intensity (a.u.)

Reprinted at random: 2 records from the list, in no set order.
Sequence | binding signal
TACGTACCATCCATGCATGATCCATCCATCTTGCGGCCATCGGAGTCACCTAGTGCAG | 11900 fluorescence intensity (a.u.)
GGATTGCCTCTAACACCACATCAGTTGACACACAAGGTTCCGGAGTCACCTAGTGCAG | 9040 fluorescence intensity (a.u.)
